Test results published in the supplement of paper PMC10849652.
The list shows a part of the results.

Amino acid sequences for entries named in this document (tags omitted). A change or cut given only in a name is not applied to a line headed by its entry.
UniProt Q02078: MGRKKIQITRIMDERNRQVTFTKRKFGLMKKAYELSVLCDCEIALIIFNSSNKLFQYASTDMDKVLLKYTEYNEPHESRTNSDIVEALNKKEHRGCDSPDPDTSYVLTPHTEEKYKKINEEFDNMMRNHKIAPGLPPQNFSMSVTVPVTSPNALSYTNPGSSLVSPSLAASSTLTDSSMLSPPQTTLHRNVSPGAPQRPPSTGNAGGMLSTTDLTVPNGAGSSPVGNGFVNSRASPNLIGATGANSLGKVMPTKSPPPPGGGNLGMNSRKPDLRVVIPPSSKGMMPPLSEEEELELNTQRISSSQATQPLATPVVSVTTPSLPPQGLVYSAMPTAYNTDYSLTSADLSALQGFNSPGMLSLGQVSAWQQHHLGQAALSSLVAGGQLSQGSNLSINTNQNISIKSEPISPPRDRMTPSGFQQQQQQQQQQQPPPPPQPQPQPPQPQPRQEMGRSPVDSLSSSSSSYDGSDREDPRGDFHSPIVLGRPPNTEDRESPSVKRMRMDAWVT
UniProt Q6NUT3: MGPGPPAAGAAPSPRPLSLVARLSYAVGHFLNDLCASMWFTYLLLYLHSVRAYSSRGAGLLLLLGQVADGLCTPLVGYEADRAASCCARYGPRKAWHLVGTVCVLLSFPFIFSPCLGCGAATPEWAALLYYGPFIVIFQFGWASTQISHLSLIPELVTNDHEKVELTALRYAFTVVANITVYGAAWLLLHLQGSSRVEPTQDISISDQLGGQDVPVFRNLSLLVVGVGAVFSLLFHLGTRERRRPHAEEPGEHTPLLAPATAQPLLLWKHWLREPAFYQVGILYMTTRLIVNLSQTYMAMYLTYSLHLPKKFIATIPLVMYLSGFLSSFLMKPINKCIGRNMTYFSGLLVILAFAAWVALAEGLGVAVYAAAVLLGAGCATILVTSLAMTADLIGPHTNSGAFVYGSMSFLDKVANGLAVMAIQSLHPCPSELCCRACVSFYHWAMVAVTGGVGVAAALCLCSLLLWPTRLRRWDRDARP
UniProt Q9GZU1, whole entry, looked up: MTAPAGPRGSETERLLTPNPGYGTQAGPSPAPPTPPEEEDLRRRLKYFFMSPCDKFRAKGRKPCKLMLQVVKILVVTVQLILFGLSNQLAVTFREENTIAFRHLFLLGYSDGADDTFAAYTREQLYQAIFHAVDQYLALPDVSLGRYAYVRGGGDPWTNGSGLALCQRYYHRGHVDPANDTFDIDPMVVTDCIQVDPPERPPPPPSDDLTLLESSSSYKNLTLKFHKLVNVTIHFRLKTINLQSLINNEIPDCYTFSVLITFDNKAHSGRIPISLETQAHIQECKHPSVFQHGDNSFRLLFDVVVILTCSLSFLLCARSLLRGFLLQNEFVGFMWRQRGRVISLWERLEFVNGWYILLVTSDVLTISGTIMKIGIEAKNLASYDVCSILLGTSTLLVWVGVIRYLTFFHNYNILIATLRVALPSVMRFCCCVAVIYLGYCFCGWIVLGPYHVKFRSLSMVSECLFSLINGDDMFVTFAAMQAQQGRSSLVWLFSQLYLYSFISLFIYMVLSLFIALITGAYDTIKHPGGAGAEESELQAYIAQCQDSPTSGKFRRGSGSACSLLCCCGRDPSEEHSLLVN
UniProt P55082: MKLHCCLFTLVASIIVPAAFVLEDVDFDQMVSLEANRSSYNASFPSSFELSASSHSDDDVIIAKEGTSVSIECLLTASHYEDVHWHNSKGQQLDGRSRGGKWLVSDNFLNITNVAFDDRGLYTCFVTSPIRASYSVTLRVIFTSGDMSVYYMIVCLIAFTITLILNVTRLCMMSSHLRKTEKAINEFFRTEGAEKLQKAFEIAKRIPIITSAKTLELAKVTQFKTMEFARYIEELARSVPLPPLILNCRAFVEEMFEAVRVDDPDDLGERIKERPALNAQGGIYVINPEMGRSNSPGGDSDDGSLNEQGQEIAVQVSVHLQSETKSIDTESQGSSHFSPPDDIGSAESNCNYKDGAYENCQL
UniProt Q9Y6X3: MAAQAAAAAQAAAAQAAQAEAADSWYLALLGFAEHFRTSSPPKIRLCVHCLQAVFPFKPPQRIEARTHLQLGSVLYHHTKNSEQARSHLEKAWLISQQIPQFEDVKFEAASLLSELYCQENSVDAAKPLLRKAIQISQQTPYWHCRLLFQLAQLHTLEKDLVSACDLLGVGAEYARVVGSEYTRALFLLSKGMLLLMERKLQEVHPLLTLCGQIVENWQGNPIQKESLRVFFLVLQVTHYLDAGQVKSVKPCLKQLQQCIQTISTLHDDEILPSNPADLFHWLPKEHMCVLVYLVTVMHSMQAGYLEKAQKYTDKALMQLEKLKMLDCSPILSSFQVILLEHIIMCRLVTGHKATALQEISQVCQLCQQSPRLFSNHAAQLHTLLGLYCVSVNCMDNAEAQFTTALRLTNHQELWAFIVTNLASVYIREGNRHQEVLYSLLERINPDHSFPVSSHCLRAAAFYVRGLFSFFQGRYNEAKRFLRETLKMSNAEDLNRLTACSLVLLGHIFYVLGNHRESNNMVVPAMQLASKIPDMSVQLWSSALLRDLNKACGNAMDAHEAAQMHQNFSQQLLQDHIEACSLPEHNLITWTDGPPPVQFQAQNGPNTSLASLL
UniProt Q9NR56: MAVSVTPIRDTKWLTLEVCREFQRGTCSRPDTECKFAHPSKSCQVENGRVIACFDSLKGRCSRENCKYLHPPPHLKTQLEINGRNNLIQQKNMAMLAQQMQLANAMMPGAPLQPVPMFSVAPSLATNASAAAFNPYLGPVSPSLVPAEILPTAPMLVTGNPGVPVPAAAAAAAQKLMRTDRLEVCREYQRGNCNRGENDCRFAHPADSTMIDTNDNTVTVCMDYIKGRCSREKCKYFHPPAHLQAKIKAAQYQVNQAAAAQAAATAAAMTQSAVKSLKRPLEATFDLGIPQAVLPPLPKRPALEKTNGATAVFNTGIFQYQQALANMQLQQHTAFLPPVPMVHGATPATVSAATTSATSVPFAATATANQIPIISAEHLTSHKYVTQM
UniProt Q7L590: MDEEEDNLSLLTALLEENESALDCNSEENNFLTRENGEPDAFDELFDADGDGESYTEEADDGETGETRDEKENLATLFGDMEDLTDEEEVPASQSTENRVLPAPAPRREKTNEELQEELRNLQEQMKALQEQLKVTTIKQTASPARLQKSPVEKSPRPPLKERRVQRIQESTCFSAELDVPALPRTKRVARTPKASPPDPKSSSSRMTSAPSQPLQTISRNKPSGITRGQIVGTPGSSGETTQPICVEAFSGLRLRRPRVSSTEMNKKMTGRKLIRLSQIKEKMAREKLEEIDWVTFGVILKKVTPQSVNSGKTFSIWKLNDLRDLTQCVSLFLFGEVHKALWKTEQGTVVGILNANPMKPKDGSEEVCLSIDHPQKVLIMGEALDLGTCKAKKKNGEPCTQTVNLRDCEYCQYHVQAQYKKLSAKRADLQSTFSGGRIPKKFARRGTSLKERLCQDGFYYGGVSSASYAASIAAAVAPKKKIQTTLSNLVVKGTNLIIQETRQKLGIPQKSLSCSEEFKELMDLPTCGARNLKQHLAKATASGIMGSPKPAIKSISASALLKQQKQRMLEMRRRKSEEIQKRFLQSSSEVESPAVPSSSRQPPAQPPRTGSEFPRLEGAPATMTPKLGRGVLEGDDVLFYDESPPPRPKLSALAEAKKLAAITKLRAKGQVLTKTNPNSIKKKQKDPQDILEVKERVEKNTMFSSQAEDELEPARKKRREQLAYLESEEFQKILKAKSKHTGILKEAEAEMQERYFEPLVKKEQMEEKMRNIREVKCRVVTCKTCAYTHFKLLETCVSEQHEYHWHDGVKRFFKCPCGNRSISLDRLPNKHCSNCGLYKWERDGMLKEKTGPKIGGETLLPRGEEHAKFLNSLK
UniProt O43513: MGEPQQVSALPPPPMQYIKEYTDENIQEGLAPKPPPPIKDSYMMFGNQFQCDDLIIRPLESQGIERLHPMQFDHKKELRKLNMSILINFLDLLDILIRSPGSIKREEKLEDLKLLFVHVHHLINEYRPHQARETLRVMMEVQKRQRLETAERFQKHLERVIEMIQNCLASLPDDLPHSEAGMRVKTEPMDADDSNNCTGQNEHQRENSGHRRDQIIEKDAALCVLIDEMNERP
UniProt Q14680: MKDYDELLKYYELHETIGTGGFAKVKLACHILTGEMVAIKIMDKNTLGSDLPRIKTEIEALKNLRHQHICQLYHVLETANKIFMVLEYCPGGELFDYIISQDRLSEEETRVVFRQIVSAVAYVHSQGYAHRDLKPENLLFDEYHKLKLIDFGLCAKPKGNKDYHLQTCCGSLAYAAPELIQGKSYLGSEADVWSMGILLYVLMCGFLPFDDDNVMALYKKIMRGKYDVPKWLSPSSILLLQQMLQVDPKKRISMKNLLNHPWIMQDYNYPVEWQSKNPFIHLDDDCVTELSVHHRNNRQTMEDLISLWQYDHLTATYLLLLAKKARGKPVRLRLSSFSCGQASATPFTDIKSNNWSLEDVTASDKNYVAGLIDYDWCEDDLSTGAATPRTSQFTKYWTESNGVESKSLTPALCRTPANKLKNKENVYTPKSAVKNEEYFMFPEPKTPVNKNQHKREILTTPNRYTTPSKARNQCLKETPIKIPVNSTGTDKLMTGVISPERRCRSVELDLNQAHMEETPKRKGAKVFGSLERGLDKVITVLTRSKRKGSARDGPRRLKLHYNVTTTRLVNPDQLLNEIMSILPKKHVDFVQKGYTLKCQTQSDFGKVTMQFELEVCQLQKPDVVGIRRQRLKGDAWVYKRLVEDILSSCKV
UniProt Q9NS73: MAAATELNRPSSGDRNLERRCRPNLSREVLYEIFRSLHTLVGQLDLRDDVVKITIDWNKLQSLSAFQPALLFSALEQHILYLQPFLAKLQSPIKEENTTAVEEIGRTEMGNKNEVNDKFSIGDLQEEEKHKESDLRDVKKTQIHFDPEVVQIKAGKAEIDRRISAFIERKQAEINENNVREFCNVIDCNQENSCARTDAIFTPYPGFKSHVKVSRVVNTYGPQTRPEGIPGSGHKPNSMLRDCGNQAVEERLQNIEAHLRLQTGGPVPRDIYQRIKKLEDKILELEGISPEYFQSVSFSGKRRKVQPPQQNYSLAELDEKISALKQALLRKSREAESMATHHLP
UniProt Q9Y4C4: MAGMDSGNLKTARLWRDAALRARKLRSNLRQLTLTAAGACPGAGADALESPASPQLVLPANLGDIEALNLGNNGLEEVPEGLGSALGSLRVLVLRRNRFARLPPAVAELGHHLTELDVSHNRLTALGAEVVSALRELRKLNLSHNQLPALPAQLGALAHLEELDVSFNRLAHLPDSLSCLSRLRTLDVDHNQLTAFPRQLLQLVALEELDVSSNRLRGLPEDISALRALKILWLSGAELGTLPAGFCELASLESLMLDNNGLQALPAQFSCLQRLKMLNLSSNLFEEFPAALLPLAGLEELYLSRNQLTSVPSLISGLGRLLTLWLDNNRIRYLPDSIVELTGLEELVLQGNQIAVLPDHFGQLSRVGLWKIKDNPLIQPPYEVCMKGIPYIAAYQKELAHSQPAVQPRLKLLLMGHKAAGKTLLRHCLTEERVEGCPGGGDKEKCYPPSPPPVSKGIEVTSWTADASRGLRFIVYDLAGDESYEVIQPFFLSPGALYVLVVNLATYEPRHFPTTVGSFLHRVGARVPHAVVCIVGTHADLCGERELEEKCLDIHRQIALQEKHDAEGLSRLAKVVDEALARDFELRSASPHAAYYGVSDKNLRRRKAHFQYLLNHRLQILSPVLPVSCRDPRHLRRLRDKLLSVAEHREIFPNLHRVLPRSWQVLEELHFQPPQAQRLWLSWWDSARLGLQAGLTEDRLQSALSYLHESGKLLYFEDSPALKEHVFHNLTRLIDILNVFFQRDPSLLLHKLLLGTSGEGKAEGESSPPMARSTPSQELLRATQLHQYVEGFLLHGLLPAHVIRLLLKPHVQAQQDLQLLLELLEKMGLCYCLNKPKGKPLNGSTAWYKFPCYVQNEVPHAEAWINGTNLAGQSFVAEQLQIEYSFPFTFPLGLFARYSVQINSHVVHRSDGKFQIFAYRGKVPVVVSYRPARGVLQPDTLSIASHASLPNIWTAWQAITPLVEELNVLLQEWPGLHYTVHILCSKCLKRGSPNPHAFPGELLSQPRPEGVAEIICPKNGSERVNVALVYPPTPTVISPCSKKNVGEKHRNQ
UniProt Q9H1A3: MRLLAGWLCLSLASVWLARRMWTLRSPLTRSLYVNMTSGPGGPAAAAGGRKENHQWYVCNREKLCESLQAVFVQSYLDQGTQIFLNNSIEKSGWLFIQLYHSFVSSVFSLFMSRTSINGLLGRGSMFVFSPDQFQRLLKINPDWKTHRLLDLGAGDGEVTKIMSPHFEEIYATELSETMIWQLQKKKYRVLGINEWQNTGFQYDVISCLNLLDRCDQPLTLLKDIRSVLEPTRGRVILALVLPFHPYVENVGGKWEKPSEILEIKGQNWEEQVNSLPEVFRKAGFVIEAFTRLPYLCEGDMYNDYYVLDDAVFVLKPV
UniProt Q9Y3C7: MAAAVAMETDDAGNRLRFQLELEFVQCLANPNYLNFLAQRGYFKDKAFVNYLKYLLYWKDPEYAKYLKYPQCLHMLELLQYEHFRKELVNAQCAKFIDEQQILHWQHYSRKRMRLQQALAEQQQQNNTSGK

compound: NC(=O)Nc1cc(-c2cccc(F)c2)sc1C(=O)N[C@H]1CCCNC1; experiment: log2 fold change, soluble protein after heating vs DMSO (PISA); higher = thermal stabilisation; K562 cells, 10 uM, 30 min; active = over 0.2 and 3.5 SD of the protein, either way, in both replicates (recomputed)
Procedure, shortened: (§1)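 K562 cells at 2×10^6 cells/mL were exposed to 10 μM compound for 30 min, then aliquots were heated for 3 min across 48°C-58°C, pooled, and extracted in PBS containing 0.5% NP-40 at 4°C. The supernatant after 21,000xg for 90 min was taken as soluble protein and measured by TMTpro 16plex LC-MS/MS with channel sums equalised. Thermal stability is reported relative to control samples, with values from duplicates. Fold changes are given on a log2 scale.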

Target	log2 fold change
MEGF9 (UniProt Q9H1U4)	inactive: -0.054
MEF2A (UniProt Q02078)	inactive: -0.2
MFSD12 isoform 3 (UniProt Q6NUT3)	inactive: 0.073
MED6 (UniProt O75586)	inactive: -0.092
MCRIP2 (UniProt Q9BUT9)	inactive: -0.006
MCOLN1 (UniProt Q9GZU1)	inactive: 0.122
MED19 (UniProt A0JLT2)	inactive: 0.085
MASP1 isoform 2 (UniProt P48740)	inactive: 0.308
MFAP3 (UniProt P55082)	inactive: 0.043
MAU2 (UniProt Q9Y6X3)	inactive: 0.337
MBNL1 isoform 5 (UniProt Q9NR56)	inactive: -0.059
MCM10 (UniProt Q7L590)	active: 0.522
MED7 (UniProt O43513)	inactive: 0.034
MELK (UniProt Q14680)	inactive: -0.384

compound: NC(=O)c1cnc(N[C@@H]2CCCC[C@@H]2N)nc1Nc1cccc(-n2nccn2)c1; experiment: as above
Procedure, shortened: as §1

Target	log2 fold change
MEIS2 (UniProt O14770)	inactive: -0.048
METTL7B (UniProt Q6UX53)	inactive: 0.18
MFSD12 isoform 3 (UniProt Q6NUT3)	inactive: -0.159
MBIP (UniProt Q9NS73)	inactive: 0.013
MGRN1 isoform 2 (UniProt O60291)	inactive: 0.11
MFHAS1 (UniProt Q9Y4C4)	inactive: 0.013
MFSD8 (UniProt Q8NHS3)	inactive: 0.02
MEGF8 (UniProt Q7Z7M0)	inactive: -0.248
METTL15 (UniProt A6NJ78)	inactive: -0.111
MFAP3 (UniProt P55082)	inactive: -0.04
MED29 (UniProt Q9NX70)	inactive: 0.05
MED7 (UniProt O43513)	inactive: 0.122
MBNL2 (UniProt Q5VZF2)	inactive: 0.111
MBLAC1 (UniProt A4D2B0)	inactive: -0.031
MELK (UniProt Q14680)	inactive: -0.128
MED21 (UniProt Q13503)	inactive: -0.098
METTL9 (UniProt Q9H1A3)	inactive: 0.079

compound: NC1(c2ccc(-c3nc4ccn5c(=O)[nH]nc5c4cc3-c3ccccc3)cc2)CCC1; experiment: as above
Procedure, shortened: as §1

Target	log2 fold change
MED6 (UniProt O75586)	inactive: -0.186
MBIP (UniProt Q9NS73)	inactive: -0.002
MCOLN3 (UniProt Q8TDD5)	inactive: -0.254
METTL26 (UniProt Q96S19)	inactive: -0.284
MED11 (UniProt Q9P086)	inactive: 0.116
MFHAS1 (UniProt Q9Y4C4)	inactive: 0.014
MFSD8 (UniProt Q8NHS3)	inactive: -0.115
MED9 (UniProt Q9NWA0)	inactive: 0.031
MEX3C (UniProt Q5U5Q3)	inactive: 0.013
MCOLN1 (UniProt Q9GZU1)	inactive: -0.066
MFSD9 (UniProt Q8NBP5)	inactive: 0.04
MED19 (UniProt A0JLT2)	inactive: 0.207
MED29 (UniProt Q9NX70)	inactive: 0.029
MEF2A isoform 2 (UniProt Q02078)	inactive: 0
MAU2 (UniProt Q9Y6X3)	inactive: -0.225
MBNL1 isoform 5 (UniProt Q9NR56)	inactive: 0.02
MCM10 (UniProt Q7L590)	inactive: 0.002
MED31 (UniProt Q9Y3C7)	inactive: -0.021
MBLAC1 (UniProt A4D2B0)	inactive: -0.179
MED21 (UniProt Q13503)	inactive: 0.034
METTL9 (UniProt Q9H1A3)	inactive: -0.132

compound: NCC(=O)Nc1ccc(-n2nc(C(F)(F)F)cc2-c2ccc3c(ccc4ccccc43)c2)cc1; experiment: as above
Procedure, shortened: as §1

Target	log2 fold change
MATK isoform 2 (UniProt P42679)	inactive: -0.068
MED6 (UniProt O75586)	inactive: 0.208
MBIP (UniProt Q9NS73)	inactive: -0.083
MFHAS1 (UniProt Q9Y4C4)	inactive: 0.024
MFSD8 (UniProt Q8NHS3)	inactive: -0.076
MED19 (UniProt A0JLT2)	inactive: 0.151
MFAP3 (UniProt P55082)	inactive: -0.09
MEF2A isoform 2 (UniProt Q02078)	inactive: 0.003
MAU2 (UniProt Q9Y6X3)	inactive: -0.057
MED13L (UniProt Q71F56)	inactive: 0.056
MCM10 (UniProt Q7L590)	inactive: -0.085
MED7 (UniProt O43513)	inactive: -0.041
MED31 (UniProt Q9Y3C7)	inactive: 0.083
MBTPS2 (UniProt O43462)	inactive: -0.166
MBLAC1 (UniProt A4D2B0)	inactive: 0.242
METTL9 (UniProt Q9H1A3)	inactive: -0.029

compound: Nc1ccccc1NC(=O)c1ccc(CNC(=O)OCc2cccnc2)cc1 [entinostat]; experiment: as above
Procedure, shortened: as §1

Target	log2 fold change
MEGF9 (UniProt Q9H1U4)	inactive: -0.065
MEF2A (UniProt Q02078)	inactive: -0.215
MFSD12 isoform 3 (UniProt Q6NUT3)	inactive: -0.067
MED6 (UniProt O75586)	inactive: -0.012
MCRIP2 (UniProt Q9BUT9)	inactive: 0.015
MCOLN1 (UniProt Q9GZU1)	inactive: -0.015
MED19 (UniProt A0JLT2)	inactive: -0.103
MASP1 isoform 2 (UniProt P48740)	inactive: -0.222
MFAP3 (UniProt P55082)	inactive: -0.052
MAU2 (UniProt Q9Y6X3)	inactive: 0.243
MBNL1 isoform 5 (UniProt Q9NR56)	inactive: 0.02
MCM10 (UniProt Q7L590)	inactive: 0.224
MED7 (UniProt O43513)	inactive: -0.16
MELK (UniProt Q14680)	inactive: -0.052
